Measurements: publication PMC10333884, “Large‐scale phosphomimetic screening identifies phospho‐modulated motif‐based protein interactions” (Molecular Systems Biology, 2023)
These are yes or no findings as the source states them, for the method shown. Some results given as binding are weak or reduced against the parent protein; the word gives no strength.

Target: T1, GGA1 VHS domain (human) (UniProt Q9UJY5)
T1 sequence: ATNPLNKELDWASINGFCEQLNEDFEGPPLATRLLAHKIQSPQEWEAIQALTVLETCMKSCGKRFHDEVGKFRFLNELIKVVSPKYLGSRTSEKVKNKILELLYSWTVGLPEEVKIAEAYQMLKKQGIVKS
Assay: ITC; peptide titrated into the protein domain in about 10-fold excess, 16 injections, iTC200; 50 mM sodium phosphate pH 7.4, 1 mM DTT; technical triplicates (GGA1 VHS: duplicates); both purified

binding: binds
B1: RNF11 6-21 peptide, wild-type (peptide)
peptide: YKSPTSDDISLLHESQS
